Values from PubChem BioAssay AID1224830 (NIAID, 2016).

Screen: 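Genes whose knock-down alters the TNF-alpha reporter response to LPS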 (primary screen)
System: human THP-1 monocytic leukaemia cells, TNF dual-luciferase reporter clone, PMA-differentiated to macrophage-like cells
Reagents: siRNA pool against human genes, 50 nM
Timing: LPS for 4 h, given about 3 days after siRNA transfection
Challenge: bacterial LPS (TLR4 ligand), 10 ng/ml
Detection: 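Ratio of firefly to renilla light, scaled to the plate median and expressed as a robust z-score per replicate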
Scale: TNF reporter robust z-score: higher = stronger TNF reporter response to LPS
Hit rule: 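Each well counts as active if its z-score is over 2.8 or under -1.5; controls are left without a call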
Shown is one part, drawn at random, of about 18,000 reagents. About 2,900 of all reagents (16%) count as active. 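Calls are made per well; low scores hint the gene aids the LPS response, high scores that it dampens it.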 The numbers tell different reagents against one gene apart. Repeated entries: four replicate wells of each siRNA pool.

With knock-down of MIA2 (GeneID 4253) #1, the screen gave TNF reporter robust z-score 0.35; inactive.
Silencing of MIA2 (GeneID 4253) #1 resulted in: TNF reporter robust z-score 0.76; inactive.
Against MIA2 (GeneID 4253) #1 the deposit lists TNF reporter robust z-score 0.79; inactive.
With knock-down of MIA2 (GeneID 4253) #1 the results were TNF reporter robust z-score 1.19; inactive.
MIA2 (GeneID 4253) #2 gave TNF reporter robust z-score -0.07; inactive.
Against MIA2 (GeneID 4253) #2 the deposit lists TNF reporter robust z-score 0.28; inactive.
Depletion of MIA2 (GeneID 4253) #2 came out at: TNF reporter robust z-score 0.3; inactive.
MIA2 (GeneID 4253) #2 gave TNF reporter robust z-score -0.08; inactive.
IL17RA (GeneID 23765) showed TNF reporter robust z-score -0.28; inactive.
After knock-down of IL17RA (GeneID 23765) the results were TNF reporter robust z-score 0.63; inactive.
After knock-down of IL17RA (GeneID 23765), the record shows TNF reporter robust z-score 0.23; inactive.
Depletion of IL17RA (GeneID 23765) resulted in: TNF reporter robust z-score 0.84; inactive.
With knock-down of TPD52L3 (GeneID 89882), the record shows TNF reporter robust z-score 0.34; inactive.
Knock-down of TPD52L3 (GeneID 89882) came out at: TNF reporter robust z-score 0.01; inactive.
TPD52L3 (GeneID 89882) scored TNF reporter robust z-score -0.11; inactive.
TPD52L3 (GeneID 89882) scored TNF reporter robust z-score 1.09; inactive.
Silencing of GJA9 (GeneID 81025) came out at: TNF reporter robust z-score -0.47; inactive.
GJA9 (GeneID 81025) scored TNF reporter robust z-score 0.26; inactive.
Depletion of GJA9 (GeneID 81025) came out at: TNF reporter robust z-score -0.61; inactive.
GJA9 (GeneID 81025) showed TNF reporter robust z-score 0.61; inactive.

2 neighbouring entries from above, quoted:
MIA2 (GeneID 4253) #1: TNF reporter robust z-score = 0.79; activity call = inactive
MIA2 (GeneID 4253) #1: TNF reporter robust z-score = 1.19; activity call = inactive
